Assay [1] concerns the target Dopamine D2 receptor (mouse striatum) (mouse (endogenous in CD-1 mouse striatum)) (UniProt P61168). The assay can be described thus: AlphaScreen or HTRF; human caudate, mouse or rat striatal membranes (10 ug protein/well) in Alpha immunoassay buffer; 3 nM rabbit anti-D2R plus 10 nM goat anti-A2AR overnight at 4 °C, then anti-rabbit IgG donor beads and anti-goat IgG acceptor beads (20 ug/mL), 1 h at room temperature; controls: A2AR-/- mice, or no anti-A2AR antibody; samples compared: healthy control and PD caudate, 6-OHDA-lesioned and saline-treated rat striatal hemispheres. In general terms: Alpha assays give light when donor and acceptor beads are brought close together.

Protein sequences, listed by entry. Tags and fused reporters are not part of them. Lines headed by an entry give the natural chain unless they say otherwise; changes in a name come on top.
UniProt P61168: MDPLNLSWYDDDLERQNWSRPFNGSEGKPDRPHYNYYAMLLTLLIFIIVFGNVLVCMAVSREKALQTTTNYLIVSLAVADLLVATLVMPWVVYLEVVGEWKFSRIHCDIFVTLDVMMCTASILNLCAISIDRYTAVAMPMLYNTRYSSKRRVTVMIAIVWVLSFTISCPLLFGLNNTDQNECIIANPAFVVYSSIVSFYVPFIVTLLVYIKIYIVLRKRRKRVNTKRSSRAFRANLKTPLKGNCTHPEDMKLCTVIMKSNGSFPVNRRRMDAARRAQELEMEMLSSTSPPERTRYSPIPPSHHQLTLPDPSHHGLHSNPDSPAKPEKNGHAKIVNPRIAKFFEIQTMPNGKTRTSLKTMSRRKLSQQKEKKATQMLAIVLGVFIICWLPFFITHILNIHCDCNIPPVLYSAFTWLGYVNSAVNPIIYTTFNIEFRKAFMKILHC
UniProt P61169: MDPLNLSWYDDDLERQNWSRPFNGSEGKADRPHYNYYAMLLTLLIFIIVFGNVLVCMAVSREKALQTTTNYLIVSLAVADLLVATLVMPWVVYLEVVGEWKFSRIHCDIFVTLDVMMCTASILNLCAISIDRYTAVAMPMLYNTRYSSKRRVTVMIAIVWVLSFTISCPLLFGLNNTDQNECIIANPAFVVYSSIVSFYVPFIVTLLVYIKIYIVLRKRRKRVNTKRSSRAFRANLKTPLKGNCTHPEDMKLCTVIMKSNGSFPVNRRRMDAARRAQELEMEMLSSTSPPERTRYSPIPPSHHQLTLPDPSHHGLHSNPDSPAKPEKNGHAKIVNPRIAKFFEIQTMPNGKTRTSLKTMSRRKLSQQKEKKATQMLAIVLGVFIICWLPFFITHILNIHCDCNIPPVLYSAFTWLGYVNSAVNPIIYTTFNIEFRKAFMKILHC
UniProt Q60613: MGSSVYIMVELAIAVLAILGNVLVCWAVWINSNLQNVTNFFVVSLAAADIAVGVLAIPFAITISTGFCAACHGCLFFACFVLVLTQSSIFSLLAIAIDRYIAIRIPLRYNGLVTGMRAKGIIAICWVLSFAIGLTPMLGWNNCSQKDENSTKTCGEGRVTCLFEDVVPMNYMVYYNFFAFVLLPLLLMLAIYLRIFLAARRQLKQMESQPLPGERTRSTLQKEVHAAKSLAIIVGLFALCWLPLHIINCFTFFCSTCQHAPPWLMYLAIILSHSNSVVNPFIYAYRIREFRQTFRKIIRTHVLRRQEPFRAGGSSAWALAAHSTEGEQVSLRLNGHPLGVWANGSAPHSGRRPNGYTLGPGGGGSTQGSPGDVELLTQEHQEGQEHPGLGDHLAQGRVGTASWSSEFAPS
UniProt P30543: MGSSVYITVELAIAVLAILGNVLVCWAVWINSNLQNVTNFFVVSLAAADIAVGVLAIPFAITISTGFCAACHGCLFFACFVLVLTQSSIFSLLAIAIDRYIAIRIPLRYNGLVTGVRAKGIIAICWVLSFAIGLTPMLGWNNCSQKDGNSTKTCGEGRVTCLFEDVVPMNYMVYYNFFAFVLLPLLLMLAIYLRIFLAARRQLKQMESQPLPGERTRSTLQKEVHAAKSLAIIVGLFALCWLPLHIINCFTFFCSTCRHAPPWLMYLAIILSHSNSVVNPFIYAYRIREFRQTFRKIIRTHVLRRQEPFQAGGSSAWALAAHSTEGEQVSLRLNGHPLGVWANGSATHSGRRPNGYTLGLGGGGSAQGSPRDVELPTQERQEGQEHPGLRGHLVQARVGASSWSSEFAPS

The target in assay [2] is Dopamine D2 receptor (rat striatum) (rat (endogenous in Sprague-Dawley rat striatum)) (UniProt P61169). The description is as above.

Results are given in words; binding and its absence hold for the method and conditions named. Some results given as binding are weak or reduced against the parent protein; the word gives no strength.

On to “Adenosine A2A receptor (mouse striatum) (from UniProt Q60613 1-410)”, for which the binding result in assay [1] is reported as “binds”.
As for “Adenosine A2A receptor (rat striatum) (from UniProt P30543 1-410)”, the binding entry in assay [2] was “binds”.

These data come from publication PMC6678849.
